Laboratory results as given in PubChem BioAssay AID588591 (National Center for Advancing Translational Sciences (NCATS), 2011).
Screen size: about 390,000 compounds; about 4,700 (1.2%) were called active. Listed are the inconclusive results; actives and inactives stand elsewhere. Calls follow the shape of the dose curve; as a rule, active = well fitted inhibition curve with a large enough effect; inconclusive = small, poorly fitted or top-dose-only effect, or another doubt; inactive = no such curve, though single readings can be large or run the other way.
Potency is read from the fitted curve at half-maximal effect.

Amino acid sequences for entries named in this document (tags omitted).
UniProt Q9Y253, whole entry: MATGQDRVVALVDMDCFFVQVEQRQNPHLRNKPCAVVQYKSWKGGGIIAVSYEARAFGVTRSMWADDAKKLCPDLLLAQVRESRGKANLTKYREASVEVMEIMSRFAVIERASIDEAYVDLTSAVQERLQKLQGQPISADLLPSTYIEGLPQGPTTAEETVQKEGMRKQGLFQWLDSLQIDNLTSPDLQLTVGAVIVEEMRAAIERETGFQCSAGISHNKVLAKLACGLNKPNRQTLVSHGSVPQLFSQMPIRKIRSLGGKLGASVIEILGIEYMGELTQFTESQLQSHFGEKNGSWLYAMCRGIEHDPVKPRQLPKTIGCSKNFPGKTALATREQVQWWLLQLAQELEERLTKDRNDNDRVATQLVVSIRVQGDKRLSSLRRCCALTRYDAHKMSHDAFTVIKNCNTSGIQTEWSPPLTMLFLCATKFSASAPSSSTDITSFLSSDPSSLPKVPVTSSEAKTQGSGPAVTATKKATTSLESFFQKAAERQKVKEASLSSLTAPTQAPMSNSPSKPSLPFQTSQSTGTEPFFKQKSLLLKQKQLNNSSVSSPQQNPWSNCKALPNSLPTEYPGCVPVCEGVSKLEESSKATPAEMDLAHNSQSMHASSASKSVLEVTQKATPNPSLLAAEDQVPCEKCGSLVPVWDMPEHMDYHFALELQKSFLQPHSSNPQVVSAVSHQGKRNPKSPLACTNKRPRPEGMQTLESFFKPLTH

Each molecule was assayed against DNA polymerase eta (Homo sapiens) (UniProt Q9Y253) (assay: qHTS for Inhibitors of Polymerase Eta). Settings: recombinant Pol eta, fluorescent DNA replication assay.
For `CCC(=O)N(c1ccccc1)C1(COC)CCN(CCc2cccs2)CC1`, the Potency was inconclusive: 89.1 µM.
